One test deals with T1, FLAG-Raf1 (S. pombe) (UniProt O74910).
T1 sequence: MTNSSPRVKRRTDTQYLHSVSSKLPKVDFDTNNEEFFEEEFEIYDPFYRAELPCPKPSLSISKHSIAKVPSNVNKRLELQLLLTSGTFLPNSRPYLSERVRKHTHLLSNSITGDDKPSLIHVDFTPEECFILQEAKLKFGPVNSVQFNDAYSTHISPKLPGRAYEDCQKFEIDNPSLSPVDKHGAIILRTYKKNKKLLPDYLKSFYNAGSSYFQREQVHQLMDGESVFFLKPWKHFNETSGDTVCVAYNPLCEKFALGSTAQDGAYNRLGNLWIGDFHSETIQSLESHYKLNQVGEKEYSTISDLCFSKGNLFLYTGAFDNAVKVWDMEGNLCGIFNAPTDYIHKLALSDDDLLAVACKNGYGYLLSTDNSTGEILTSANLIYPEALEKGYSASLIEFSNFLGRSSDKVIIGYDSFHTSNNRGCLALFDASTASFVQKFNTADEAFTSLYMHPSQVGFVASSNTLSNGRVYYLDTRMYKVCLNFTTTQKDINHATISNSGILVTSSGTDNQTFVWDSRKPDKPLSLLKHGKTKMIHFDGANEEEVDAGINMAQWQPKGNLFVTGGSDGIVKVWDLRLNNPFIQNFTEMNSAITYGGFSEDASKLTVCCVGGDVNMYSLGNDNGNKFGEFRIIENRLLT
The test can be described thus: affinity purification with mass spectrometry; single-step FLAG affinity purification of FLAG-Raf1 from S. pombe lysate (50 mM Hepes pH7.5, 150 mM KCl, 0.1% NP40), anti-FLAG M2 on proteinG Dynabeads 15 min, Benzonase, on-bead tryptic digestion, LC-MS/MS.

The chains behind the UniProt entries cited, without tags or fusion partners.
UniProt Q9HDV4: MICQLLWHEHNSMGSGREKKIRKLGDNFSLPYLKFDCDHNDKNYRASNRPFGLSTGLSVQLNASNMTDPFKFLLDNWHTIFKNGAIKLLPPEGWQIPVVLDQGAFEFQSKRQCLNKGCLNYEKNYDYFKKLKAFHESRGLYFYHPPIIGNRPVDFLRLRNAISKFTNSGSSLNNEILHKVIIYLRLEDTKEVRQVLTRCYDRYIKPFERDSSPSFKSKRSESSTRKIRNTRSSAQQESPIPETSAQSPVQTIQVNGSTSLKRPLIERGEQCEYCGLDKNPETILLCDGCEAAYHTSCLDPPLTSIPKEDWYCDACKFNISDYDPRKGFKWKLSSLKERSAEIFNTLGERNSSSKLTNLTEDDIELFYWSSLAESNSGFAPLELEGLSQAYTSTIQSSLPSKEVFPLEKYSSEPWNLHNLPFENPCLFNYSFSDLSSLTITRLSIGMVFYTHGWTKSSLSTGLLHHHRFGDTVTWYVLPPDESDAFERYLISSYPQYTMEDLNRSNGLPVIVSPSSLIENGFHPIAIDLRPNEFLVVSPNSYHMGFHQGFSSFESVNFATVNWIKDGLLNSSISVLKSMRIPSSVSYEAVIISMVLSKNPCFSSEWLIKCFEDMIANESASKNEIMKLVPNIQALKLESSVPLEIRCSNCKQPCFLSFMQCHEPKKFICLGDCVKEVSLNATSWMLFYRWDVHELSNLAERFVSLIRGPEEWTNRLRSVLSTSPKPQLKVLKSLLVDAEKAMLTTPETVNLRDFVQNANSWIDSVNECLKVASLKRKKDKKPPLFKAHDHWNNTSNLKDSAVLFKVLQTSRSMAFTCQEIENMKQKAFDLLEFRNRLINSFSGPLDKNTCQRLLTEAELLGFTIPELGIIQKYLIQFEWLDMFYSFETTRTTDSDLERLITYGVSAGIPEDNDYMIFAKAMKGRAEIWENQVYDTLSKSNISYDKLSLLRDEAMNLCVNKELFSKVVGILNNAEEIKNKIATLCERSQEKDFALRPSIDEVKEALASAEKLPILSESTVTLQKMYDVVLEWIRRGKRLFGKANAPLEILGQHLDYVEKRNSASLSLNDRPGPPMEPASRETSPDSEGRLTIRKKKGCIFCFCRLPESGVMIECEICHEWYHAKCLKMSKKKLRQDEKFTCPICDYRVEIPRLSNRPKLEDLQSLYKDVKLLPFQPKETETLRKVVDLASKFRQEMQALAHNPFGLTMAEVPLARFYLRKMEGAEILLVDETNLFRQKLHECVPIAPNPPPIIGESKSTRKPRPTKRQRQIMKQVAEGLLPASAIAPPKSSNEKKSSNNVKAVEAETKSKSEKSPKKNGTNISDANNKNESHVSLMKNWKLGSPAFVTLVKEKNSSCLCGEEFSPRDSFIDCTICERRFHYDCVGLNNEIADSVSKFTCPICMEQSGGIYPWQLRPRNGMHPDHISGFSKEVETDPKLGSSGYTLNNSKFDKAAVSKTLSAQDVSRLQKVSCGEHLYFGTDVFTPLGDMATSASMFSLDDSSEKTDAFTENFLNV
UniProt O60016: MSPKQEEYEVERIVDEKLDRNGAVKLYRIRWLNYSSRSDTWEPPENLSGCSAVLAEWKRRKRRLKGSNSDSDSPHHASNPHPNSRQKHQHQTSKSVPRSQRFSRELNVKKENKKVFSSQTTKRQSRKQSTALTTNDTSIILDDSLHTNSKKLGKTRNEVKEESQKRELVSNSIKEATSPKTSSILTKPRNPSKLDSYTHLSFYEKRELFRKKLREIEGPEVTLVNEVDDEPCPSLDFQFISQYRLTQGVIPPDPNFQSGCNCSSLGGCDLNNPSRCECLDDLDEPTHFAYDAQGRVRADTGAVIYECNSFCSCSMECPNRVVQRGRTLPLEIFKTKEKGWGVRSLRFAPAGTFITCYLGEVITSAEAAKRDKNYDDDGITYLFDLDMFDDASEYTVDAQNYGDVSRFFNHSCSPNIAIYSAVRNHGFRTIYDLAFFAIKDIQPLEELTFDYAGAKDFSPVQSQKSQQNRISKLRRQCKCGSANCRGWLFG

In test [1] the target is T2, FLAG-Raf1 (S. pombe), O74910.
T2 chain: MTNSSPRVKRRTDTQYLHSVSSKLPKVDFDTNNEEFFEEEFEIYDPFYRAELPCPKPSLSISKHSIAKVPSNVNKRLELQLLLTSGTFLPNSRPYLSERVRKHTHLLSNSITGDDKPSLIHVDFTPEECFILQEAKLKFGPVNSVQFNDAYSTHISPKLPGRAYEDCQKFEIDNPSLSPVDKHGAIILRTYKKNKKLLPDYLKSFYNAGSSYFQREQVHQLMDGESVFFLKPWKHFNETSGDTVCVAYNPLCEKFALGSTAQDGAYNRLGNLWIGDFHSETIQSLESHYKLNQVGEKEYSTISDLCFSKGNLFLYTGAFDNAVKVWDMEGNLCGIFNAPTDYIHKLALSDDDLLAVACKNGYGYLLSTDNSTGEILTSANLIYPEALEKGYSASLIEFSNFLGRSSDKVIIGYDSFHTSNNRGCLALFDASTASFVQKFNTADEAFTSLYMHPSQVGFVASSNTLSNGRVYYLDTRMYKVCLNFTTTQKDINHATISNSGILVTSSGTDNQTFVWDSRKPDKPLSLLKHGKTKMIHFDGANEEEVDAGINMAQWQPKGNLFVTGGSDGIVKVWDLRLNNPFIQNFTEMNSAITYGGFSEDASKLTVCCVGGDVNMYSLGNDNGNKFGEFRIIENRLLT
Described as above. The settings on record: remark: other sources report otherwise.

No constants are given. Whether binding was seen depends on the method and setting. Binding seen in cells or lysates may run through a third protein. Here binding means that the protein was enriched with, or labelled near, the bait; the list need not be complete. For some assays here: No binding means not detected with the bait. Sequences can lack the tags named with a protein.

“Lid2 (from UniProt Q9HDV4 1-1513) (enzyme)”: the binding entry with FLAG-Raf1 (S. pombe) is on record as “no binding”.
On the same count and under the same terms, to “Clr4 (from UniProt O60016 1-490) (enzyme)” belongs “binds”.

B1: Rik1 (protein, UniProt Q10426 1-1040)
chain: MALCVHSFWATAVDTATSCHFISSENCLVLLQALKINIYLCSEVHGLQFFTSIPLFSTVKHIRPYRPPGLDRDYLFVVLNDDTYFSIYWDEDYQKVIVDHPPVRYRVTFPWNRNAKSYCLVDLRMRAIFLSIDEISMICIRILSAEERLKTGRSIDSGFPFSFPVHLIYDMCILNDSSTPTLVVLHSDGLDCYVTAFLLDLSSKSLGKGIRLFERVKPSMIMPFGKRGLLVFESLFIHCMYRGNFVTINGPCTTYMHWTPLKGQKMHYIVCDTNGYLFGVYSSILGKNKWSLVMERLPIPPFDFITSLNSIHEGLLFIGSKNSESKLINLSTLKDVDSIPNLGPIHDLLVLKNDIEKSFLVCAGTPRNASLIYFQHALKLDILGQTKISGILRAMVLPSYPEHKLFLGFPSETVAFNIKEDFQLELDPSLSTKERTIALSGTNGEFVQVTSTFLCIYDSAKRSRLVYIEKITNAACYQEYSAIVINGTALAIFKKDTEVARKVFESEISCLDFSAQFQIGVGFWSKQVMILTFSDNSSISCAFQTNVPSLPRNIILEGVGVDRNLLLVSSGSGEFKSYVLFKNNLVFSETKHFGTTPVSFRRFTMNIGTYIICNNDCPHMVYGFNGALCYMPLSMPQSYDVCQFRDNSGKDFLISVSLGGLKFLQLNPLPELTPRKVLLEHVPLQAIIFQNKLLLRTLENRYEDYESYKENYHLELVDSYDDNSFRVFSFTENERCEKVLKINESSLLVGTSIIEQDKLVPVNGRLILLEFEKELQSLKVVSSMVLSAAVIDLGVYNDRYIVAFGQQVAIVKLTEERLMIDSRISLGSIVLQLIVEGNEIAIADSIGRFTIMYFDGQKFIVVARYLFGENIVKAALYEGTVYIIATNSGLLKLLRYNKDAKNFNDRFICESVYHLHDKVSKFQNFPITNTNSFLEPKMLFATEIGAIGSIVSLKDKELELEELTRKIRKLKFSYLSSMDYESIEADLISPVPFIDGDLVIDVKRWASSELFRLCRSVEHRESLNSYQKVQALLEEIQSLC
For B1, in the test with FLAG-Raf1 (S. pombe), the binding result is listed as “binds”.

B2: Cul4 (protein, UniProt O14122 1-734)
chain: MPPEAKRIVVKGFDPRKSRQRQETYYVTMIDRLNMALQVVMAGLGLKTGYQELYSGVENLTRADQASRCFNILQHHMSSGIQLLKDSAESFIQLEGTETDTNACTVVVGCWNKWLERVEIVQNIFYYMDKTFLSHHPDYPTIEELSLSLFREKLMAVKNIQIPFLNSLLQSFENLHSSKSTDHAYLQDAMLMLHRTEMYSSVFVPMYLVMLSRFYDTESSQKIQELPLEEYLEYAMSSLEREDAYVEKFDIVRDKKSIRETVQRCLITSHLDTLTKGISQFIEKRDAHSCKLLYALLQFNHETEYLIQPWSDCLVDVGFKLVNDESKDDTLVQELLSFHKFLQVVVDESFLHDETLSYAMRKAFETFINGAKGSQREAPARLIAKYIDYLLRVGEQASGGKPLKEVFSEILDLFRYIASKDIFEAYYKLDIAKRLLLNKSASAQNELMLLDMLKKTCGSQFTHSLEGMFRDVNISKEFTSSFRHSKAAHNLHRDLYVNVLSQAYWPSYPESHIRLPDDMQQDLDCFEKFYLSKQVGKKISWYASLGHCIVKARFPLGNKELSISLFQACVLLQFNNCLGGEGISYQDLKKSTELSDIDLTRTLQSLSCARIRPLVMVPKSKKPSPDTMFYVNEKFTDKLYRVKINQIYLKEERQENSDVQEQVVRDRQFELQASIVRVMKQKEKMKHDDLVQYVINNVKDRGIPLVSDVKTAIEKLLEKEYLEREDNDIYTYVT
Take B2: the binding entry with FLAG-Raf1 (S. pombe) was “binds”.

B3: Raf2, O74560 1-636 (protein)
chain: MPPVRAEKKRKTDLIEQVCVTNKAGELVDLEDVLEYGPYSLTGILSSEKDEQEPLFDESIVLGYSIKISPVWTYNLKDVPEKETMSIWIVTPQRRYGILSPSSEYKAIYEQISEKNRLFYLIKTKFKDDMISGTLEDYDNYIEVLKEKLELPSCFQAILLVQKHIRFLLTQMVATSSLHVWSESPFFIRIRSSYEHLILQINKNIYNARQERKKSKLSSNNPSDNNTTMKSSLNQALTLINLPEQPFSISSPTATPQLGVVKRTSPLRFPLNDIWLSGLRIVDPNIESISLWKRIQVSTSPKHQRYISLQEVCSVIAQQLQITNLEALNKLSSHGETLLQIMHTAFTWRGTKLFNDIKHAIGFRSSVQQARSQFRGYCYDYLFMHCNNGEKTSLHLLRTLICMKLDFSNAQLAAKILFHFLLFDIGSGLSGSDYTYEQYINHSAVAFSFTEEIFEKNFVTVLPDFVKLFSISFGYWPAFSFYDELLKLLRNKYPKVYSSTPNLCDQVWLDRTNLFPCNRSTRSTLPYRPTKLLDLASASSCLSKKETDFKQDTGLYSYNLEKVEALKVSPDLQTGIWSCPVQNCLYFAVCDNPYKPSQVIYDHLLGHVDSKFIFKTPSNSVRSFTNKLEHIMYNIN
Take B3: in test [1], the binding entry is “binds”.
